US20160356723A1, “Light-Up Probes Based On Fluorogens With Aggregation Induced Emission Characteristics For Cellular Imaging And Drug Screening” (NATIONAL UNIVERSITY OF SINGAPORE, priority 2014, published 2016)
At least one peptide structure holds a part that was inferred or is arguable (an end, a ring closure or a residue).

Key:
[1] = test system: cell lysates of breast cancer cells MDA-MB-231; assay: Fluorescence in MDA-MB-231 cell lysate; assay type: biochemical; settings: 10 μM
[2] = Fluorescence turn-on on reduction of the prodrug by ascorbic acid; settings: ascorbic acid 1 mM
[3] = test system: MDA-MB-231 cells; assay: Confocal imaging of intracellular drug reduction, MDA-MB-231; assay type: cell-based; settings: for cell fluorescence: integrin αvβ3 positive cells, up to 6 h
[4] = test system: MCF-7 cells; assay: Confocal imaging of intracellular drug reduction, MCF-7; assay type: cell-based; settings: low integrin αvβ3, 6 h incubation
[5] = Titration with other bioacids and proteins (prodrug stability)

Row | Structure (SMILES) | fluorescence intensity at 605 nm over time in cell lysate [1] | fluorescence intensity change after incubation with ascorbic acid ([2]; DMSO/PBS v/v=1/199) | cell fluorescence [3] | cell fluorescence [4] | time to fluorescence plateau with ascorbic acid ([2]; 10 μM prodrug) [h] | emission intensity increase over intrinsic emission with ascorbic acid ([2]; 10 μM prodrug, DMSO/PBS v/v=1/199, plateau) [fold] | fluorescence intensity change with other bioacids and proteins [5] | cell fluorescence after pretreatment with free cRGD [3]
1 | N=C(N)NCCC[C@@H]1NC(=O)[C@H](CCCCNC(=O)[C@H](CC(=O)O)NC(=O)[C@H](CC(=O)O)NC(=O)[C@H](CC(=O)O)NC(=O)[C@H](CC(=O)O)NC(=O)[C@H](CC(=O)O)NC(=O)CCCCCCC(=O)NCCCC[n+]2ccc(/C=C/c3ccc(C(=C(c4ccccc4)c4ccccc4)c4ccccc4)cc3)cc2)NC(=O)[C@@H](Cc2ccccc2)NC(=O)[C@H](CC(=O)O)NC(=O)CNC1=O [PyTPE-C6-D5-cRGD] | minimum change | negligible fluorescence intensity increase | no detectable fluorescence | no detectable fluorescence |  |  |  | 
2 | N=C(N)NCCC[C@@H]1NC(=O)[C@H](CCCCNC(=O)[C@H](CC(=O)O)NC(=O)[C@H](CC(=O)O)NC(=O)[C@H](CC(=O)O)NC(=O)[C@H](CC(=O)O)NC(=O)[C@H](CC(=O)O)NC(=O)CCC(=O)[O][Pt-2]([NH3+])([NH3+])([Cl])([Cl])[O]C(=O)CCC(=O)NCCCC[n+]2ccc(/C=C/c3ccc(C(=C(c4ccccc4)c4ccccc4)c4ccccc4)cc3)cc2)NC(=O)[C@@H](Cc2ccccc2)NC(=O)[C@H](CC(=O)O)NC(=O)CNC1=O [PyTPE-Pt-D5-cRGD] | increases quickly |  | increased gradually with time | weak fluorescence signal | 1.5 | 18 | negligible fluorescence intensity change | weak fluorescence
3 | [NH3+][Pt-2]([NH3+])([Cl])([Cl])([O]C(=O)CCC(=O)NCCCC[n+]1ccc(/C=C/c2ccc(C(=C(c3ccccc3)c3ccccc3)c3ccccc3)cc2)cc1)[O]C(=O)CCC(=O)N[C@@H](CC(=O)O)C(=O)N[C@@H](CC(=O)O)C(=O)N[C@@H](CC(=O)O)C(=O)N[C@@H](CC(=O)O)C(=O)N[C@@H](CC(=O)O)C(=O)O [PyTPE-Pt-D5] |  |  | weak fluorescence intensity | weak fluorescence intensity |  |  |  | 
